Two molecules from paper PMC8511046 can be followed below.

Sequences of proteins named here, by UniProt entry; tags and fusion partners are left off.
UniProt P11798: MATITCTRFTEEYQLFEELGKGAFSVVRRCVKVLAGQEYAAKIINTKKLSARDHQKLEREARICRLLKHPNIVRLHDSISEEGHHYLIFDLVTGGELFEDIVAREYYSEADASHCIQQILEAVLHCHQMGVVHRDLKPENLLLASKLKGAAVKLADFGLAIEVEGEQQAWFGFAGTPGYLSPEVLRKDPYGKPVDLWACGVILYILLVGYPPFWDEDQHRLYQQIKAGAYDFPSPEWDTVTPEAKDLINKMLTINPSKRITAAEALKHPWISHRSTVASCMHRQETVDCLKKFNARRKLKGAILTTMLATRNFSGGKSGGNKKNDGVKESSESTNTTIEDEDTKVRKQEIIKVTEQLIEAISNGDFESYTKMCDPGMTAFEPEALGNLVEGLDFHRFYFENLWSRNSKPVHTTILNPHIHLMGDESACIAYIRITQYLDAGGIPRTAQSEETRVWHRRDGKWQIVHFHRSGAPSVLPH

No constants are given. Whether binding was seen depends on the method and setting. Binding seen in cells or lysates may run through a third protein. Some entries that bind do so weakly or less than the wild type.

The assay deals with T1, vezatin (mouse (endogenous in mouse hippocampus)) (UniProt Q3ZK22).
T1 sequence: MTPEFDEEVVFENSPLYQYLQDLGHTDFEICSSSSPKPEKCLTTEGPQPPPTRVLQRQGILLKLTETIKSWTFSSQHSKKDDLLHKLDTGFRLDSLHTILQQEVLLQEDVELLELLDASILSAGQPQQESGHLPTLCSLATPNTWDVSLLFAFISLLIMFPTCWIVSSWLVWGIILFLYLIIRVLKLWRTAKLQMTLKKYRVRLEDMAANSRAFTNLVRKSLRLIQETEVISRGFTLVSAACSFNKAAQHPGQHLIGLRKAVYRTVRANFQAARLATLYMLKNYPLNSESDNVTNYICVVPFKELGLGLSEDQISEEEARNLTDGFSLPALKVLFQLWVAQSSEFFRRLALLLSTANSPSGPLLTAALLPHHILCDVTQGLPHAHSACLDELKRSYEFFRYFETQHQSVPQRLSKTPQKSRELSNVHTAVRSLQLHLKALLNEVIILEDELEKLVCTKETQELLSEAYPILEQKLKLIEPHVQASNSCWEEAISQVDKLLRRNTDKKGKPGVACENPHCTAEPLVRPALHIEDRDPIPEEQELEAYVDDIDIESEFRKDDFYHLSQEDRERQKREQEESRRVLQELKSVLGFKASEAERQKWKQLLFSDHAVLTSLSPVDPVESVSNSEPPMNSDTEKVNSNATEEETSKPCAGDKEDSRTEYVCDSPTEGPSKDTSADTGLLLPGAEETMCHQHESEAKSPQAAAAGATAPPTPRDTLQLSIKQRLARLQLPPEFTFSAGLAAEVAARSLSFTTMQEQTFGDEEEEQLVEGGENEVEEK
Briefly: co-IP; whole protein extract of mouse brain (hippocampus) tissue, pre-cleared with IgG and Protein A + G agarose; antibody overnight at 4 °C, beads 3 h at 4 °C, five washes with lysis buffer; western blot; endogenous proteins.

For the molecule “calcium/calmodulin-dependent kinase II-α (from UniProt P11798 1-478) (enzyme)”, the binding entry is on record as “binds”.

B1: AKAP150 (protein, UniProt D3YVF0 1-745)
chain: METSVSEIQVETKDEKGPVAASPQKERQERKTATLCFKRRKKANKTKPKAGSRTAEETKKHTPEAGGSGQRQPAGAWASIKGLVTHRKRSEPAKKQKPPEAEVQPEDGALPKKKAKSRLKFPCLRFSRGAKRSRHSKLTEDSGYVRVQGEADDLEIKAQTQPDDQAIQAGSTQGLQEGVLVRDGKKSQESHISNSVTSGENVIAIELELENKSSAIQMGTPELEKETKVITEKPSVQTQRASLLESSAAGSPRSVTSAAPPSPATTHQHSLEEPSNGIRESAPSGKDDRRKTAAEEKKSGETALGQAEEAAVGQADKRALSQAGEATAGHPEEATVIQAESQAKEGKLSQAEETTVAQAKETVLSQAKEGELSQAKKATVGQAEEATIDHTEKVTVDQAEETTVGQAEEATVGQAGEAILSQAKEATVVGQAEEATVDRAEEATVGQAEEATVGHTEKVTVDQAEEATVGQAEEATVGQAEEATVDWAEKPTVGQAEEATVGQAEEATVGHTEKVTVDQAEEATVGQAEEATVGHTEKVTVDHAEEATVGQAEEATVGQAEKVTVDHAEEATVGQAEEATVGQAEKVTVDHAEEATVGQAEEATVGQAEKVTVDQAEEPTVDQAEEAISSHAPDLKENGIDTEKPRSEESKRMEPIAIIITDTEISEFDVKKSKNVPKQFLISMENEQVGVFANDSDFEGRTSEQYETLLIETASSLVKNAIELSVEQLVNEMVSEDNQINTLFQ
As for B1, the binding entry is listed as “binds”.
